# According to article PMC7064621:
# These are yes or no findings as the source states them, for the method shown. In cells and extracts the contact can be indirect. Binding can be weak; no strength is given. Where a sequence is shown, tags or fusion partners need not be part of it.
# T1: Myc-AtRPN1A (Arabidopsis thaliana) (UniProt Q9SIV2)
# T1 sequence: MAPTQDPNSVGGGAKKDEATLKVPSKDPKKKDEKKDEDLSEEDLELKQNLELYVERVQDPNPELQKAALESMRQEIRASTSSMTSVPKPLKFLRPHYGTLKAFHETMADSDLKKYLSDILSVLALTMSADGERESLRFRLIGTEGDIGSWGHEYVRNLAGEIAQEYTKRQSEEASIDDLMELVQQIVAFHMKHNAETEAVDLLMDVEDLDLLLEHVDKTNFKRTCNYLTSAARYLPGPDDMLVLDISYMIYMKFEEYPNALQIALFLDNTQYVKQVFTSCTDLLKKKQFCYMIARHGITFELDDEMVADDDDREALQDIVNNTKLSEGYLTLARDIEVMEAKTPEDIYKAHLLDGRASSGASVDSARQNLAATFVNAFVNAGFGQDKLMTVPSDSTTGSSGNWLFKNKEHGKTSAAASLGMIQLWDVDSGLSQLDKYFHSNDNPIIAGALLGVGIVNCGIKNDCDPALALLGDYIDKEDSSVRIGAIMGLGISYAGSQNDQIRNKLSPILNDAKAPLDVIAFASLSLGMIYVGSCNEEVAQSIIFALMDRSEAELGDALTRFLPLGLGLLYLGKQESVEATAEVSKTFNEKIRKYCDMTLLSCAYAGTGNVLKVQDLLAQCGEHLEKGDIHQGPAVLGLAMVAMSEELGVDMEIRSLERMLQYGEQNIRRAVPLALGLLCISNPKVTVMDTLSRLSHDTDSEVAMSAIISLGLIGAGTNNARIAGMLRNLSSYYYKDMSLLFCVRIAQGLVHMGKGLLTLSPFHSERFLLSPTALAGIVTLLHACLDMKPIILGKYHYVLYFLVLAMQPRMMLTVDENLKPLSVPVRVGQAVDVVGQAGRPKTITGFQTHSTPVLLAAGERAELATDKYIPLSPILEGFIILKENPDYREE
# How the values were obtained:
# [1] = biological target: T1, Myc-AtRPN1A (Arabidopsis thaliana); assay: co-IP; transient co-expression in N. benthamiana; extract precleared with protein A-sepharose, Myc antibodies coupled with protein A-sepharose beads; anti-GFP blot
# [2] = biological target: AtNHR2A-GFP, transiently expressed in N. benthamiana (Arabidopsis thaliana); assay: co-IP; semi-in vivo: 5 ug purified His-AtENGD-1 mixed with 100 ug total protein of N. benthamiana expressing AtNHR2A-GFP or GFP; GFP Trap-A beads; anti-His blot; only the binder purified
Molecule,binding [1],binding [2]
"AtNHR2B-GFP, transiently expressed in N. benthamiana (Arabidopsis thaliana)",binds,
"6X-His-AtENGD-1 (protein, UniProt Q9SA73 1-394) MPPKAKAKDAGPVERPILGRFSSHLKIGIVGLPNVGKSTLFNTLTKLSIPAENFPFCTIEPNEARVNIPDERFDWLCQTYKPKSEIPAFLEIHDIAGLVRGAHEGQGLGNNFLSHIRAVDGIFHVLRAFEDADIIHVDDIVDPVRDLETITEELRLKDIEFVGKKIDDVEKSMKRSNDKQLKIELELLQKVKAWLEDGKDVRFGDWKTADIEILNTFQLLSAKPVVYLINLNERDYQRKKNKFLPKIHAWVQEHGGDTMIPFSGVFERSLADMAPDEAAKYCEENKLQSALPRIIKTGFSAINLIYFFTAGPDEVKCWQIRRQSKAPQAAGAIHTDFERGFICAEVMKFEDLKELGNEPAVKAAGKYRQEGKTYVVQDGDIIFFKFNVSGGGKK",,binds
